The results in this text go back to article doi:10.1101/2025.09.06.674659.

The chains behind the UniProt entries cited, without tags or fusion partners. Where a name states a change or a piece, a line headed by the entry shows the natural chain unless it says otherwise.
UniProt Q9NP72: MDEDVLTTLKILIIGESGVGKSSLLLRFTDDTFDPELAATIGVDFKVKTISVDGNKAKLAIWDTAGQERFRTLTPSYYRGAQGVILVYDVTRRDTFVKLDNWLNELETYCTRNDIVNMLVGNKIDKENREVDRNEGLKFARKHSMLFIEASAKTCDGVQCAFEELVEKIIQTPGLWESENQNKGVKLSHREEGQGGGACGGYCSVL
UniProt P33175: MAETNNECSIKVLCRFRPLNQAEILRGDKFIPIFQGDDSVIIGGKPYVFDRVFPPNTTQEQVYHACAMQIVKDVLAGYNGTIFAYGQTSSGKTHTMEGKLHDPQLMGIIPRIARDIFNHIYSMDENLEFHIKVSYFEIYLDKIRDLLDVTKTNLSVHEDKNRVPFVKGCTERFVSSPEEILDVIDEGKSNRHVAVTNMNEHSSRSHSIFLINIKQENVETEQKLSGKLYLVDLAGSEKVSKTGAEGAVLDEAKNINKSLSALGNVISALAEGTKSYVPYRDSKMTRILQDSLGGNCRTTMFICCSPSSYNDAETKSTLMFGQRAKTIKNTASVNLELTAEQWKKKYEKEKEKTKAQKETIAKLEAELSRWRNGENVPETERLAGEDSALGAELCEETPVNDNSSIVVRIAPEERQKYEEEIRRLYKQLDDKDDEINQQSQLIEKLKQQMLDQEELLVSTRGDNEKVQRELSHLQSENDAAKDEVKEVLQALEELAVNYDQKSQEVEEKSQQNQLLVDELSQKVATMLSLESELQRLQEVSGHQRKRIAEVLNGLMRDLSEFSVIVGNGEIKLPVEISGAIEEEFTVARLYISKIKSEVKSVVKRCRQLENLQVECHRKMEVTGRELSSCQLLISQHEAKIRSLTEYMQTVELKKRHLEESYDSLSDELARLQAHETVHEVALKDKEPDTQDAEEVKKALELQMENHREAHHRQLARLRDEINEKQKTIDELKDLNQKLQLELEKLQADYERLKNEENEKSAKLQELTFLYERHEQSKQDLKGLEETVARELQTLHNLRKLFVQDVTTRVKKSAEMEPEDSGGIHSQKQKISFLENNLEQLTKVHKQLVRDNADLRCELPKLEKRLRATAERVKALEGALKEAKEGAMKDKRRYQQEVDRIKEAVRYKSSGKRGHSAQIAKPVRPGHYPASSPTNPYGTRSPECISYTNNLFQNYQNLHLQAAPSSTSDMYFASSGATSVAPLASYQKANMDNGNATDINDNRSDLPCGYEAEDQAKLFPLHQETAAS

In test [1] the target is GST-tagged Rab18Q67L (GTP-bound mimetic) (UniProt Q9NP72). Put plainly: pull-down.
Test [2] has as its target GST-tagged Rab18S22N (GDP-bound mimetic) (UniProt Q9NP72). Put plainly: pull-down.

Results are given in words; binding and its absence hold for the method and conditions named. In cells and extracts the contact can be indirect. Some binding calls cover weakened binding; strength is not graded here.

Turning to “kinesin-1 molecular motor KIF5 (KIF5A) (from UniProt P33175 1-1027)”, in test [1], the binding result is given as “binds”.

B1: neutral sphingomyelinase 2 (nSMase2) (enzyme, UniProt Q9JJY3 1-655)
chain: MVLYTTPFPNSCLSALHAVSWALIFPCYWLVDRLLASFIPTTYEKRQRADDPCCLQLFCTVLFTPVYLALLVAALPFAFLGFIFWSPLQSARRPYSYSRLEDKNPAGGAALLSEWKGTGAGKSFCFATANVCLLPDSLARLNNVFNTQARAKEIGQRIRNGAARPQIKIYIDSPTNTSISAASFSSLVSPQGGDGSRAVPGSIKRTASVEYKGDGGRHPSDEAANGPASGEQADGSLEDSCIVRIGGEEGGRPQEADDPAAGSQARNGAGGTPKGQTPNHNQRDGDSGSLGSPSASRESLVKARAGQDSGGSGEPGANSKLLYKTSVVKKAAARRRRHPDEAFDHEVSAFFPANLDFLCLQEVFDKRAAAKLKEQLHGYFEYILYDVGVYGCHGCCNFKCLNSGLFFASRYPVMDVAYHCYPNGCSFDALASKGALFLKVQVGSTPQDQRIVGYIACTHLHAPPEDSAVRCEQLDLLQDWLADFRKSTSSTSTANPEELVVFDVICGDLNFDNCSSDDKLEQQHSLFTRYKDPCRLGPGEEKPWAIGTLLDTNGLYDEDVCTPDNLQKVLESEEGRREYLAFPTSKSPGAGQKGRKDLLKGNGRRIDYMLHAEEGLCPDWKAEVEEFSFITQLSGLTDHLPVAMRLMVSAGEEEA
As to B1, the binding result in test [2] is reported as “binds”.
